Laboratory results from the supplement of paper PMC8616043.
Where a name gives a salt, the structure may show the parent alone. Some of the results follow. This data set is noisy: repeats of one test often differ as much as different tests do.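 The cells are human U-2 OS cells that stably carry a GFP sensor with a nuclear import signal and a classical export signal. They were transfected to make PR50, a 50-repeat proline–arginine dipeptide protein from the ALS/FTD gene C9ORF72. Each well's nuclear-minus-cytoplasm GFP signal was scaled from in-plate DMSO (low) to PR-only wells (high), then scored against the other test wells on the plate; compounds scoring well below zero were called hits that reverse the PR effect.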

Each molecule was assayed on U-2 OS NCT-C biosensor cells expressing PR50 (assay: Z-score of normalised NCT-C biosensor translocation index in PR50-expressing cells; higher = more nuclear biosensor (more disrupted nuclear export)). Conditions: 3 µM; 24 h.
In the case of CCN1CCc2nc(N)oc2CC1 [B-HT 933  dihydrochloride], the Z-score is reported as inactive: 2.01. C[N+](C)(C)CCOC(=O)CCC(=O)OCC[N+](C)(C)C [Succinylcholine Chloride·2H2O] was tested, and the Z-score was inactive: 0.504. For C[N+](C)(C)CCOC(=O)CCC(=O)OCC[N+](C)(C)C [Succinylcholine chloride], the Z-score was inactive: 0.0888. With CC(Cc1ccc(O)c(O)c1)(NN)C(=O)O (stereo not drawn) [S-(-)-Carbidopa] the Z-score was inactive: 0.0521. With CN(C)c1ccc(O)c2c1C[C@H]1C[C@H]3[C@H](N(C)C)C(O)=C(C(N)=O)C(=O)[C@@]3(O)C(O)=C1C2=O [Minocycline HCl] the Z-score was inactive: 0.59. With CN(C)c1ccc(O)c2c1C[C@H]1C[C@H]3[C@H](N(C)C)C(O)=C(C(N)=O)C(=O)[C@@]3(O)C(O)=C1C2=O [Minocycline·HCl] the Z-score was inactive: -0.571. In the case of CN(C)c1ccc(O)c2c1C[C@H]1C[C@H]3[C@H](N(C)C)C(O)=C(C(N)=O)C(=O)[C@@]3(O)C(O)=C1C2=O [Minocycline], the Z-score is reported as inactive: -0.0187. In the case of O=C1CCCC(=O)C1C(=O)c1ccc(C(F)(F)F)cc1[N+](=O)[O-] [Nitisinone], the Z-score is reported as inactive: -0.471. In the case of CN(C)CC/C=C1/c2ccccc2COc2ccc(CC(=O)O)cc21 [Olopatadine], the Z-score is reported as inactive: 0.0122. In the case of Clc1ccc(N2CCN(Cc3cc4ccccn4n3)CC2)cc1, the Z-score is reported as inactive: -0.796. O=C(O)C1=CCCN(CCON=C(c2ccccc2)c2ccccc2)C1 [NO-711  hydrochloride] was tested, and the Z-score was inactive: 1.43. For C=C1CC[C@H]2C(=C)CC[C@H]3C(=C)C(=O)O[C@@H]3[C@@H]12 [Dehydrocostus lactone], the Z-score was inactive: -0.302. For CNC(=N)NCCC[C@H](N)C(=O)O [NG-Monomethyl-L- arginine acetate], the Z-score was inactive: 0.155. In the case of C/C=C/C/C=C/CCC(=O)[C@H]1O[C@H]1C(N)=O [Cerulenin], the Z-score is reported as inactive: -0.528. For CCCCCCCCCCCCCC[C@@H](O)[C@@H](O)[C@@H](CO)NC(C)=O [C2 Phytoceramide], the Z-score was inactive: 0.193. COCCc1ccc(OCC(O)CNC(C)C)cc1 (racemic) [(+-)-Metoprolol (+)- tartrate salt] was tested, and the Z-score was inactive: -0.395. For CC(N)(Cc1ccc(O)c(O)c1)C(=O)O (racemic) [(+/-)-3-(3,4-  dihydroxyphenyl)-2- methyl-DL-alanine], the Z-score was inactive: -0.947. For CC[C@@H](CO)NCCN[C@@H](CC)CO [Ethambutol Dihydrochloride], the Z-score was inactive: 0.393. CC1=C(/C=C/C(C)=C\C=C\C(C)=C\C(=O)O)C(C)(C)CCC1 [9-cis-Retinoic acid] was tested, and the Z-score was inactive: -0.62. For CC1=C(/C=C/C(C)=C\C=C\C(C)=C\C(=O)O)C(C)(C)CCC1 [Alitretinoin], the Z-score was inactive: 0.422. In the case of C[C@@H]1O[C@@H](OC[C@H]2O[C@@H](Oc3cc(O)c4c(=O)cc(-c5ccc(O)cc5)oc4c3)[C@H](O)[C@@H](O)[C@@H]2O)[C@H](O)[C@H](O)[C@H]1O [Isorhoifolin], the Z-score is reported as inactive: -0.0792. With O=C(/C=C/c1ccc(O)c(O)c1)O[C@@H]1C[C@](O)(C(=O)O)C[C@@H](O)[C@H]1O [Chlorogenic acid] the Z-score was inactive: 0.387. C#C[C@]1(O)CC[C@H]2[C@@H]3CCC4=CC(=O)CC[C@@H]4[C@H]3CC[C@@]21CC [Levonorgestrel] was tested, and the Z-score was inactive: 0.0887. C#CCn1c(=O)c2c(ncn2C)n(C)c1=O [3,7-Dimethyl-1- propargylxanthine] was tested, and the Z-score was inactive: -0.224. Cn1ccc2cc3c(cc21)CCN3C(=O)Nc1cccnc1 was tested, and the Z-score was inactive: -0.993. O=C(O)CP(=O)(O)O [Phosphonoacetic acid] was tested, and the Z-score was inactive: -1.05. In the case of CCC(=O)Nc1cccc(Oc2nc(Nc3ccc(N4CCN(C)CC4)cc3OC)ncc2Cl)c1, the Z-score is reported as inactive: -0.172. In the case of CO/N=C(\C(=O)N[C@@H]1C(=O)N2C(C(=O)OC(C)OC(C)=O)=C(COC(N)=O)CS[C@H]12)c1ccco1 (stereo partly drawn) [Cefuroxime Axetil], the Z-score is reported as inactive: 0.615. In the case of CCN(CC)CCCCCCCCOC(=O)c1cc(OC)c(OC)c(OC)c1 [TMB-8  hydrochloride], the Z-score is reported as inactive: 0.0754. In the case of N#CC(C#N)=C(N)/C(C#N)=C/c1cc(O)c(O)c(O)c1 [Tyrphostin 51], the Z-score is reported as inactive: -0.216. For COc1ccccc1OCC(O)COC(N)=O (stereo not drawn) [Methocarbamol], the Z-score was inactive: 0.0504. In the case of Nc1ccn([C@@H]2CS[C@H](CO)O2)c(=O)n1 [Lamivudine], the Z-score is reported as inactive: 0.207. For Cc1cc(N)c2ccccc2[n+]1CCCCCCCCCC[n+]1c(C)cc(N)c2ccccc21 [Dequalinium chloride hydrate], the Z-score was inactive: 0.222. C[C@@H]1O[C@@H](O[C@@H]2[C@@H](O)[C@H](O)[C@@H](CO)O[C@H]2c2c(O)cc(O)c3c(=O)cc(-c4ccc(O)cc4)oc23)[C@H](O)[C@H](O)[C@H]1O [Vitexin-2"-O-rhamnoside] was tested, and the Z-score was inactive: 1.31. With NNC(=O)CSc1nc2scc(-c3ccccc3)c2c(=O)n1-c1ccccc1 the Z-score was inactive: -0.0254. For Oc1cc2c(cc1O)C(c1ccccc1)CNCC2 (racemic), the Z-score was inactive: -0.262. In the case of CC(C)(O)c1ccccc1CC[C@@H](SCC1(CC(=O)O)CC1)c1cccc(/C=C/c2ccc3ccc(Cl)cc3n2)c1 [Montelukast·Na], the Z-score is reported as inactive: -0.407. For O=C1NC(=O)C(c2ccccc2)(c2ccccc2)N1 [Phenytoin], the Z-score was inactive: 1.8. O=C1NC(=O)C(c2ccccc2)(c2ccccc2)N1 [5,5-  Diphenylhydantoin] was tested, and the Z-score was inactive: 0.452. With CN1Cc2c(N)cccc2C(c2ccccc2)C1 (stereo not drawn) [Nomifensine maleate] the Z-score was inactive: 0.0691. For COc1c(N2CCNC(C)C2)c(F)cc2c(=O)c(C(=O)O)cn(C3CC3)c12 (stereo not drawn) [Gatifloxacin], the Z-score was inactive: 0.088. With O=C(c1ccccc1)c1ccc2n1CCC2C(=O)O (stereo not drawn) [Ketorolac tris salt] the Z-score was inactive: 0.847. For O=C(c1ccccc1)c1ccc2n1CCC2C(=O)O (stereo not drawn) [Ketorolac Tromethamine], the Z-score was inactive: 0.962. In the case of CCN(CC)CCOc1ccc(/C(=C(/Cl)c2ccccc2)c2ccccc2)cc1 [Enclomiphene hydrochloride], the Z-score is reported as inactive: 0.254. In the case of CN(C)CC(c1ccc(O)cc1)C1(O)CCCCC1 (stereo not drawn) [Desvenlafaxine Succinate Hydrate], the Z-score is reported as inactive: -0.252. With C/C1=C\CC(C)(C)/C=C/C(=O)/C(C)=C/CC1 [Zerumbone] the Z-score was inactive: -0.107. For COC(=O)C1=C(C)NC(C)=C(C(=O)OC(C)C)C1c1cccc2nonc12 (stereo not drawn) [Isradipine], the Z-score was inactive: -0.841. In the case of CC(C)=CCc1cc2c(cc1O)oc(=O)c1c3ccc(O)cc3oc21 [Psoralidin], the Z-score is reported as inactive: 0.206. In the case of O=C(O)/C=C/c1cnc[nH]1 [4-Imidazoleacrylic acid], the Z-score is reported as inactive: -0.107. For O=C(/C=C/N1C[C@H]2C[C@@H]1CN2c1ccccn1)c1ccccc1O, the Z-score was active: -2.23. For CC1COc2c(N3CCN(C)CC3)c(F)cc3c(=O)c(C(=O)O)cn1c23 (stereo not drawn) [Ofloxacin], the Z-score was inactive: -0.042. With O=C(c1ccoc1)N1CCN(c2cc(-c3ccco3)nc3cc(-c4ccccc4)nn23)CC1 the Z-score was inactive: 2.59. In the case of CCOC(=O)Nc1ccc(NCc2ccc(F)cc2)nc1N [Flupirtine maleate], the Z-score is reported as inactive: -1.04. For C#C[C@]1(O)CC[C@H]2[C@@H]3CCC4=CCCC[C@@H]4[C@H]3C(=C)C[C@@]21CC [Desogestrel], the Z-score was inactive: 0.00949. For COc1c2c(nc3ccccc13)OC(C(C)(O)CO)C2 (stereo not drawn) [Dubinidine], the Z-score was inactive: -0.0123. CC(=O)Oc1cc2c(s1)CCN(C(C(=O)C1CC1)c1ccccc1F)C2 (stereo not drawn) [Prasugrel] was tested, and the Z-score was inactive: -0.744. For Cn1cnc([N+](=O)[O-])c1Sc1ncnc2[nH]cnc12 [Azathioprine], the Z-score was inactive: 0.885. With CC(C)C(=O)Nc1ccc([N+](=O)[O-])c(C(F)(F)F)c1 [Flutamide] the Z-score was inactive: -0.0649. OCCN1C[C@H](O)[C@@H](O)[C@H](O)[C@H]1CO [Miglitol] was tested, and the Z-score was inactive: -0.499. CC(=O)OCC[N+](C)(C)C [Acetylcholine Chloride] was tested, and the Z-score was inactive: 0.831. With CC1(C)CCC2=C(O1)c1ccccc1C(=O)C2=O [β-Lapachone] the Z-score was inactive: -0.789. With O=C(O)CSCC(=O)NC1CCSC1=O (stereo not drawn) [Erdosteine] the Z-score was inactive: -0.619. With COc1cc(/C=C/C(=O)CC(=O)/C=C/c2ccc(O)c(OC)c2)ccc1O [Curcumin] the Z-score was inactive: -1.21. With Cc1ccc(S(=O)(=O)Nc2ccccc2N2CCCCC2)s1 the Z-score was inactive: 3.26. NCC[C@H](O)C(=O)N[C@@H]1C[C@H](N)[C@@H](O[C@H]2O[C@H](CN)[C@@H](O)[C@H](O)[C@H]2O)[C@H](O)[C@H]1O[C@H]1O[C@H](CO)[C@@H](O)[C@H](N)[C@H]1O [Amikacin Disulfate] was tested, and the Z-score was inactive: 0.308. In the case of NC(C(=O)O)c1cc(O)cc(O)c1 [(S)-3,5-  Dihydroxyphenyl glycine], the Z-score is reported as inactive: 0.21. In the case of O=C1c2cccc3c2[C@H](CCC3)CN1[C@@H]1CN2CCC1CC2 [Palonosetron hydrochloride], the Z-score is reported as inactive: -0.405. In the case of O=C1c2cccc3c2[C@H](CCC3)CN1[C@@H]1CN2CCC1CC2 [Palonosetron·HCl], the Z-score is reported as inactive: -0.469.
